Measured data: PubChem BioAssay AID743121 (NCATS, 2013)
Screen: 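Knock-downs that sensitise breast cancer cells to camptothecin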 (primary screen). Cell system: MDA-MB-231 cells, a human breast cancer line. Knock-down reagent: single siRNA against human genes, 20 nM siRNA (0.8 pmol per well). Timing: 120 h (drug added 48 h after transfection, read 72 h later). Treatment: camptothecin 20 nM (about EC30) for 72 h; vehicle 0.1% DMSO in parallel plates. Detection: 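CellTiter-Glo ATP signal, scaled to control siRNA as percent viability; sensitisation given as log2 of untreated divided by camptothecin-treated viability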. Scale: log2 vehicle/camptothecin viability: higher = stronger sensitisation to camptothecin; viability with camptothecin and viability without drug: higher = more viable cells. Call rule: 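Each gene scored by redundant siRNA activity (RSA) over its individual siRNA ratios; a gene is called active at p < 0.001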.
The deposit covers about 26,000 reagents; below is a random part of them. 167 of them (0.63%) count as active. 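Calls are per gene from RSA p-values that are not deposited; an individual active-marked siRNA can sensitise only weakly.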 Entries without a mark were called inactive. Reagents against one gene are numbered here. Reagent sequences are not shown.

no.	gene	reagent no.	log2 vehicle/camptothecin viability	viability with camptothecin (% of control)	viability without drug (% of control)
1	ACADS	1	-0.416	107	80.4
2	ACADS	2	0.119	68	73.9
3	ACADS	3	-0.284	87.3	71.7
4	RABEPK	1	-0.0637	92.2	88.2
5	RABEPK	2	-0.593	92.2	61.1
6	RABEPK	3	-0.468	107	77.4
7	RABEPK	4	0.407	40.4	53.6
8	FGF8	1	-0.317	53.4	42.9
9	FGF8	2	0.285	54.5	66.4
10	FGF8	3	0.156	22.5	25.1
11	FGF8	4	-0.566	46.8	31.6
12	FGF8	5	-0.597	28.5	18.8
13	FGF8	6	-0.0674	99.3	94.8
14	FBXO16	1	-0.391	103	78.3
15	FBXO16	2	0.22	85.4	99.5
16	FBXO16	3	-0.314	97.3	78.2
17	FBXO16	4	-0.408	124	93.4
18	MORN3	1	-0.126	84.9	77.8
19	MORN3	2	-0.191	96.2	84.3
20	MORN3	3	-0.377	70.9	54.6
21	MORN3	4	0.494	59.7	84.1
22	IPO4	1	0.215	71.1	82.5
23	IPO4	2	-0.926	59.3	31.2
24	IPO4	3	-0.161	55.6	49.7
25	IPO4	4	0.211	52	60.2
26	PNP	1	-0.0184	82.2	81.1
27	PNP	2	-0.0172	86.2	85.2
28	PNP	3	0.0528	106	110
29	PNP	4	0.421	62.8	84.2
30	LIPC	1	-0.0961	81.4	76.1
31	LIPC	2	-0.00959	68.7	68.3
32	LIPC	3	-0.155	46.4	41.7
33	LIPC	4	-0.225	92.9	79.5
34	PHKA2	1	-0.133	46	41.9
35	PHKA2	2	-0.256	62.1	52
36	PHKA2	3	-0.0591	92	88.3
37	PHKA2	4	-0.36	65.1	50.7
38	LAMA3	1	0.262	67.1	80.5
39	LAMA3	2	-0.126	67.4	61.8
40	LAMA3	3	-0.539	72.4	49.8
41	LAMA3	4	-0.217	104	89.4
42	SIRPB1	1	-0.302	123	99.8
43	SIRPB1	2	-0.182	72.7	64
44	SIRPB1	3	-0.03	61.2	59.9
45	SIRPB1	4	0.0297	34.2	34.9
46	SIRPB1	5	-0.584	81.4	54.3
47	SIRPB1	6	-0.193	62.3	54.5
48	FBXW9	1	-0.421	92.4	69
49	FBXW9	2	1.02	10	20.3
50	FBXW9	3	-0.618	93.5	60.9
51	CYLD	1	-0.0229	97	95.5
52	CYLD	2	0.0855	94.9	101
53	CYLD	3	0.0252	89	90.6
54	CYLD	4	-0.911	34.3	18.3
55	PROS1	1	-0.313	92.7	74.6
56	PROS1	2	-0.382	72.9	55.9
57	PROS1	3	-0.24	131	111
58	PROS1	4	-0.0426	89.5	86.9
59	RERG	1	0.0369	87.9	90.2
60	RERG	2	0.781	35.8	61.4
61	RERG	3	-0.18	89	78.5
62	RERG	4	-0.469	68.9	49.7
63	RAB38	1	-0.143	64.6	58.5
64	RAB38	2	0.132	86.6	94.9
65	RAB38	3	0.24	29.7	35
66	RAB38	4	-0.224	64.6	55.3
67	TYMP	1	-0.423	94	70.1
68	TYMP	2	-0.364	85.7	66.6
69	TYMP	3	-0.189	55.4	48.6

Part of the list above, showing only “log2 vehicle/camptothecin viability”:
ACADS #3: -0.284
RABEPK #1: -0.0637
RABEPK #2: -0.593
RABEPK #3: -0.468
RABEPK #4: 0.407
FGF8 #1: -0.317
FGF8 #2: 0.285
FGF8 #3: 0.156
FGF8 #4: -0.566
FGF8 #5: -0.597
FGF8 #6: -0.0674
